The text below walks through data of publication PMC4758718.

The target of one experiment is TbSec13 (T. brucei) (UniProt Q388I4). The experiment is described as follows: affinity purification with mass spectrometry; GFP-tagged Nup (in situ, one allele) as handle, from clarified lysate of cryomilled T. brucei on magnetic beads with polyclonal llama anti-GFP antibodies, 1 hr at 4°C, three washes with extraction buffer; extraction buffer chosen for each handle (S1 Table); SDS-PAGE, Coomassie, bands identified by MS.

A further experiment addresses TbNup132 (T. brucei) (UniProt Q57XP4). The experiment is described as above.

Results are given in words; binding and its absence hold for the method and conditions named. Binding seen in cells or lysates may run through a third protein. A yes stands for co-enrichment or nearness to the bait. Other partners may have been found.

With TbNup132 (from UniProt Q57XP4), in the experiment with TbSec13 (T. brucei), the binding entry is recorded as “binds”.
For TbSec13 (from UniProt Q388I4), the binding entry with TbNup132 (T. brucei) is given as “binds”.
